{"source": "patent US20210069333A1", "about": "“CANNABINOIDS IN COMBINATION WITH NON-CANNABINOID CHEMOTHERAPEUTIC AGENTS” (GW Pharma Limited, priority 2008, published 2021)", "test_system": "human U87 MG astrocytoma cells", "test": "Cell viability of human U87 MG astrocytoma cells in culture", "details": "U87MG, 0.1 ug/ml and 0.25 ug/ml, single cannabinoid, FIG. 2a", "procedure": "Tetrahydrocannabinol (THC) and cannabidiol (CBD) in the form of cannabis plant extracts were dissolved in ethanol to a concentration of 100 mM this was stored at −20° C. until required.\nBefore use the cannabis plant extracts were further diluted to the desired concentration, ensuring that the concentration of ethanol was below 0.001%.\nU87 human glioma cells were used throughout this experiment. The cells were maintained at 37° C. in a humidified atmosphere with 5% CO2 and 95% air.\nCells were cultured in a 75 cm^2 culture flask in Dulbecco's Modified Eagle Medium (DMEM), which had been supplemented with 4 mM L-glutamine, 100 units/ml penicillin, […], 1% sodium pyruvate, 1% non-essential amino acids and 10% heat-inactivated fetal bovine serum.\nThe viability of the human U87 MG astrocytoma cells were examined at various cannabinoid concentrations. The THC and CBD extracts were compared against pure THC and CBD.\nThe methods used were as described in Example 1 above.\nThe action of THC, CBD, and a 1:1 ratio mix of THC and CBD were studied at different concentrations on two cell lines: U87MG and T98G.\nCell viability assays were performed as described in Example 1 above.", "note": "Some of these results come from one statement about several compounds together.", "data": [{"smiles": "C=C(C)[C@@H]1CCC(C)=C[C@H]1c1c(O)cc(CCCCC)cc1O", "note": "[CBD, cannabidiol]", "values": [{"measurement": "cell viability", "result": "greater than 90%"}]}]}
